This is an account of results in paper doi:10.1101/2020.02.05.936237.

The target of this experiment is T1, Enp1-TAP (Enp1 harboring a C-terminal Tandem Affinity Purification tag) (S. cerevisiae) (UniProt P38333).
T1 sequence: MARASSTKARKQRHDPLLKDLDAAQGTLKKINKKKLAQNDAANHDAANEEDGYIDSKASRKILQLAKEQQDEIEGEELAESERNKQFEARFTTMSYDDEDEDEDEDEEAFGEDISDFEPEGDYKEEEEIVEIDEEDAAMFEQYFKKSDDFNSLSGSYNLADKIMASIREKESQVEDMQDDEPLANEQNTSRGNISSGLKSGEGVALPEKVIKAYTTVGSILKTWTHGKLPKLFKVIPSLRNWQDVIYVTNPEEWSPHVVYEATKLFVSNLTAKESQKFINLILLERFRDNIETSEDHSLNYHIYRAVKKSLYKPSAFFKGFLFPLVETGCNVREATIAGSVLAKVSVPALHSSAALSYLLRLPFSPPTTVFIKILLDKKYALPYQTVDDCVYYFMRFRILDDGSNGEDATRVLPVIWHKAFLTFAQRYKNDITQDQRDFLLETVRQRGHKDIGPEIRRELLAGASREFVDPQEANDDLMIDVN
Description: affinity purification with mass spectrometry.

These are yes or no findings as the source states them, for the method shown. Binding seen in cells or lysates may run through a third protein. Here binding means that the protein was enriched with, or labelled near, the bait; the list need not be complete. Sequences can lack the tags named with a protein.

B1: Rio1 (protein, UniProt Q12196 1-484)
chain: MSLEDKFDSLSVSQGASDHINNQLLEKYSHKIKTDELSFSRAKTSKDKANRATVENVLDPRTMRFLKSMVTRGVIADLNGCLSTGKEANVYHAFAGTGKAPVIDEETGQYEVLETDGSRAEYAIKIYKTSILVFKDRERYVDGEFRFRNSRSQHNPRKMIKIWAEKEFRNLKRIYQSGVIPAPKPIEVKNNVLVMEFLSRGNGFASPKLKDYPYKNRDEIFHYYHTMVAYMRLLYQVCRLVHADLSEYNTIVHDDKLYMIDVSQSVEPEHPMSLDFLRMDIKNVNLYFEKMGISIFPERVIFQFVISETLEKFKGDYNNISALVAYIASNLPIKSTEQDEAEDEIFRSLHLVRSLGGLEERDFDRYTDGKFDLLKSLIAHDNERNFAASEQFEFDNADHECSSGTEEFSDDEEDGSSGSEEDDEEEGEYYDDDEPKVLKGKKHEDKDLKKLRKQEAKDAKREKRKTKVKKHIKKKLVKKTKSKK
With B1, the binding entry is recorded as “binds”.

B2: Mrd1 (protein, UniProt Q06106 1-887)
chain: MSRIIVKGLPVYLTDDNLREHFTKRLRQKHSHQAVNGSGPDLITDVKILRDRNGESRRFGFIGYRNEEDAFDAVEYFNGSFINTSKIEVSMAKSFADPRVPQPMKEKRREALKRFREKEEKLLQEENRKKKKVDENKHSNIDDEIRKNKQLQEFMETMKPSSQVTSWEKVGIDKSIEDEKLKREEEDSSVQGNSLLAHALALKEENNKDEAPNLVIENESDDEYSALNRNRDEDQEDAGEEEKMISISNLKDTDIGLVNDDANSDEKENEKRRNLAQDEKVSDLDWFKQRRVRIKESEAETREKSSSYATEQNESLDTKKEEQPERAVPQKTDEELAIEKINQTGRLFLRNILYTSKEEDFRKLFSPFGELEEVHVALDTRTGQSKGFAYVLFKDSKNAVNAYVELDKQIFQGRLLHILPGEEKKSHRLDEFDLKNMPLKKQKELKRKAAASRQTFSWNSLYMNQDAVLGSVAAKLGLEKSQLIDAENSSSAVKQALAEAHVIGDVRKYFESKGVDLTKFSQLKSTNQRDDKVILVKNFPFGTTREELGEMFLPYGKLERLLMPPAGTIAIVQFRDTTSARAAFTKLSYKRFKDGIIYLERGPKDCFTKPAEADDLINNTSAKEEENPVEVKPSSNDLMEANKDVTEGSSNAHDEDVIDGPTVSIFIKNLNFSTTNQNLTDRFKVFTGFVVAQVKTKPDPKHQGKTLSMGFGFVEFRTKEQANAVIAAMDGTVIDGHKIQLKLSHRQASQSGNTKTKSNKKSGKIIVKNLPFEATRKDVFELFNSFGQLKSVRVPKKFDKSARGFAFVEFLLPKEAENAMDQLHGVHLLGRRLVMQYAEEDAVDAEEEIARMTKKVRKQVATNEMAALRNGGGRKKLDVDDEENEGF
B2: the binding entry is reported as “binds”.

B3: Slx9 (protein, UniProt P53251 1-210)
chain: MVAKKRNTLRSKVSARNSQNFGPDVANNGILDESYDIESDPRAFLHQPKETKKEKLLNRQNTFLSNLKGKSTLNDGIAANFDGISKSSIRRRKRKLREELKPRMQDLLTSLEQEKDLRGIIENSSKDMNNDDDIDMDSKIRFVDTKEMNLKKIEPGSVRIKKNQPNIRNQKGAKALAANETARFNQVLTNQDFQKNPFGALREVIKLQKQ
On to B3, for which the binding entry is reported as “binds”.
